Measurements from publication PMC7862700.
This is a selection; strong and weak results do not stand in their true shares. For some assays here: At the low end of the ranking, values are background and their order means little. This is one part of the list. For some assays here: The exact form of the protein is not confirmed.

Columns and labels:
ETS1 = molecular target: T1, ETS1 (UniProt P14921); experiment: DAPPL (digital affinity profiling via proximity ligation, sequencing); conditions: 10 mM Tris-HCl pH 7.5, 50 mM NaCl, 1 mM DTT, 4% glycerol, room temperature, 30 min; GST-TFs on glutathione beads, 16-mer random dsDNA library, 0.1% …; high values mean tight binding; double strand, one strand shown; scale: fold enrichment (6-mer frequency, TF over GST control)
T1 sequence: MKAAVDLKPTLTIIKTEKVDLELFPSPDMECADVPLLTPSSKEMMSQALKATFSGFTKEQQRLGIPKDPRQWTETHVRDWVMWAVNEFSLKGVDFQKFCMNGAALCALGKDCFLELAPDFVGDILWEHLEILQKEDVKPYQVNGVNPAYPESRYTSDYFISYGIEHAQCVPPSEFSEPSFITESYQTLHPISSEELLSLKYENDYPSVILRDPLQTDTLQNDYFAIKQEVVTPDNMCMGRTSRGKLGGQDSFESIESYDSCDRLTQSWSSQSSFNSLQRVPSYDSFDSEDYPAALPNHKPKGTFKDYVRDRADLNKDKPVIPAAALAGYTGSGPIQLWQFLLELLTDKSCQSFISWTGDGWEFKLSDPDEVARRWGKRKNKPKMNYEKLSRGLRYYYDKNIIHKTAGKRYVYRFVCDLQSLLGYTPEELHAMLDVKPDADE

SPDEF = molecular target: T2, SPDEF (UniProt O95238); experiment: as above; conditions: 10 mM Tris-HCl pH 7.5, 50 mM NaCl, 1 mM DTT, 4% glycerol, room temperature, 30 min; GST-TFs on glutathione beads, 16-mer random dsDNA library, 0.1% …; high values mean tight binding; double strand, one strand shown; scale: fold enrichment (6-mer frequency, TF over GST control)
T2 sequence: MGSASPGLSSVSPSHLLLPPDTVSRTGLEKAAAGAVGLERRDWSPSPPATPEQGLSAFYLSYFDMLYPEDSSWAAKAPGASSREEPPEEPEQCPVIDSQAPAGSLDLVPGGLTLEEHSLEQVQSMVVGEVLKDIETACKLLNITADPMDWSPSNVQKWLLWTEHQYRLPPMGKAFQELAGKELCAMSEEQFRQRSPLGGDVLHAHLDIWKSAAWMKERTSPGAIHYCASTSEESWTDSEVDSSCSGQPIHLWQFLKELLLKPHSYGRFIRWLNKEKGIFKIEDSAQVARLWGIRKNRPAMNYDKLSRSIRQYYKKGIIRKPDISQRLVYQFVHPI

Row | Sequence | binding signal (ETS1) | binding signal (SPDEF)
1 | GGCTTG | 1.07 | 0.919
2 | TCAGCT | 1.02 | 0.99
3 | CACTAG | 0.944 | 0.973
4 | CAACGA | 1.02 | 1.01
5 | TCGACG | 0.981 | 1.05
6 | CACAAA | 1.18 | 1.12
7 | GGAAGT | 2.8 | 2.97
8 | TGAAAT | 1.03 | 0.976
9 | CACTAT | 1.21 | 1.18
10 | ATGCGT | 1.04 | 1.07
11 | CACATG | 1.12 | 0.935
12 | GAGCTT | 1.05 | 0.926
13 | TATAGA | 1.19 | 1.14
14 | CGCGTA | 0.991 | 0.892
15 | GTATAC | 1.28 | 1.3
16 | TTGTGC | 1.16 | 1.15
17 | ATAATC | 1.15 | 1.17
18 | ACTTGG | 1.25 | 1.21
19 | CTGGAA | 1.21 | 1.16
20 | CGGCAC | 0.883 | 1.02
21 | TGCAAG | 1.03 | 1.11
22 | AATGAA | 1.16 | 1.04
23 | CGCCAA | 1.03 | 0.978
24 | TGACTG | 1.03 | 1.05
25 | GTATGG | 1.07 | 0.938
26 | AATACT | 1.33 | 1.15
27 | GCAAAC | 0.994 | 0.968

Row | Sequence | binding signal (ETS1) | binding signal (SPDEF)
28 | AACTGG | 1.31 | 1.23
29 | GCAGCT | 0.995 | 1.06
30 | CATAAC | 1.21 | 1.15
31 | TAAGCA | 1.01 | 1.06
32 | ACCCCC | 1.1 | 1.1
33 | CCCAAG | 0.966 | 0.924
34 | CCAACT | 1.31 | 1.27
35 | TCCGTC | 1.34 | 1.6
36 | GCTCAC | 1.44 | 1.42
37 | TAAAGG | 1.01 | 0.925
38 | CCGCCG | 1.24 | 1.34
39 | CAATGG | 1.05 | 0.895
40 | CGTAGC | 1.06 | 0.987
41 | CTTATA | 1.45 | 1.51
42 | CCGCCA | 1.32 | 1.29
43 | ATGCCG | 1.1 | 1.13
44 | CACTCC | 1.26 | 1.2
45 | CCTTCG | 1.5 | 1.33
46 | TTAAGA | 1.1 | 1.06
47 | CAGCAC | 1.04 | 0.937
48 | TCAATG | 1.06 | 1.12
49 | TCACCA | 1.1 | 1.13
50 | CCTGCG | 1.35 | 1.23
51 | ATCTCA | 1.19 | 1.07
52 | TGCATA | 1.17 | 1.18
53 | AAGACT | 1.07 | 0.951
54 | TGCGCC | 1.22 | 1.07

Row | Sequence | binding signal (ETS1) | binding signal (SPDEF)
55 | CTTGTA | 1.38 | 1.45
56 | CGCGCG | 0.959 | 0.965
57 | AGCTTG | 0.981 | 0.831
58 | TGGCCA | 1.09 | 0.894
59 | ACGTCT | 1.17 | 1.12
60 | GACTGC | 0.944 | 0.857
61 | CTAACT | 1.27 | 1.24
62 | TCCGCG | 1.3 | 1.4
63 | TCCGAA | 1.34 | 1.29
64 | AGCAAT | 1.05 | 1.04
65 | GCGTAT | 0.981 | 0.998
66 | TACAGC | 1.06 | 0.996
67 | CCCTGA | 1.01 | 0.946
68 | CCCTTC | 1.4 | 1.38
69 | ATAACG | 0.935 | 0.967
70 | AGTAGC | 0.982 | 0.904
71 | CCTTGC | 1.43 | 1.34
72 | GCTGGC | 0.922 | 0.893
73 | TGATAG | 0.93 | 0.936
74 | AACTAC | 1.4 | 1.48
75 | CGAACC | 1.25 | 1.23
76 | ACCTAG | 1 | 0.917
77 | CTGTCC | 1.33 | 1.27
78 | TTGGAA | 0.976 | 0.958
79 | GCATAC | 0.985 | 0.984

Part of the list above, with tabs.
Row	Sequence	binding signal (ETS1)	binding signal (SPDEF)
74	AACTAC	1.4	1.48
75	CGAACC	1.25	1.23
76	ACCTAG	1	0.917
